Results are given in words; binding and its absence hold for the method and conditions named. Some results given as binding are weak or reduced against the parent protein; the word gives no strength.
T1: recombinant mouse MERTK (mouse, UniProt Q60805 23-496, limits assumed)
T1 construct: Analyte in solution in biolayer interferometry; also called msMer; murine MERTK
T1 sequence (looked up): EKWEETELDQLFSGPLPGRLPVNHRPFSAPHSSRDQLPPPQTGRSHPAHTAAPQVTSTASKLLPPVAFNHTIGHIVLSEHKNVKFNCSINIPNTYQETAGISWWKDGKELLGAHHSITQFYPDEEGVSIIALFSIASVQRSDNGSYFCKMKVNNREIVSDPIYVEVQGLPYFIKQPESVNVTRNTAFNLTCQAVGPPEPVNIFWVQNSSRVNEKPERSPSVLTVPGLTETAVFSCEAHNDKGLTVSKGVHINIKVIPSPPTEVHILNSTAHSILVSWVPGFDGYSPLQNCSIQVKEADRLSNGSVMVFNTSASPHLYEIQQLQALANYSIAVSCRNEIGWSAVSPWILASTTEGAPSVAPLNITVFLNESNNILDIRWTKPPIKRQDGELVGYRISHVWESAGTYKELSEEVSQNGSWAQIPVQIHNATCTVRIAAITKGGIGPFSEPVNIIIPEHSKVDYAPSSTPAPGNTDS

T2: recombinant human MERTK (human, UniProt Q12866 21-505, limits assumed)
T2 construct: Analyte in solution in biolayer interferometry; also called hMer
T2 sequence: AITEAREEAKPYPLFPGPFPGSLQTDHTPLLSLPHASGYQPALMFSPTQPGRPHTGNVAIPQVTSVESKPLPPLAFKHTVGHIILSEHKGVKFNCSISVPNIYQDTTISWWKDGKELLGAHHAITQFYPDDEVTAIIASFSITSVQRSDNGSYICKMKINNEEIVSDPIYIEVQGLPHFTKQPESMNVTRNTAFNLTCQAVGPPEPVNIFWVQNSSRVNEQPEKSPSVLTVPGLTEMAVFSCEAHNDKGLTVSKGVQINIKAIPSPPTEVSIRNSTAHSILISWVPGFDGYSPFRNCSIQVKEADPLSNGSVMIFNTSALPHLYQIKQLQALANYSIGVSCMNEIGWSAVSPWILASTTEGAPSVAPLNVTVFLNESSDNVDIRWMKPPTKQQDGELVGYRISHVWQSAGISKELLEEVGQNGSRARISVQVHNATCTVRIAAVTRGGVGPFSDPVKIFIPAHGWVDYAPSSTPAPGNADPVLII

B1: monoclonal antibody M19 (antibody, V domains shown)
VH: EVQLEESGPDLKKPGETVKISCKASNYTFTDYSMHWVKQAPGKGLKWVGWINTDTGEPTYADDFKGRFAFSLETSASTAYLQINNLKNEDTATYFCARWFGAMDYWGQGTSVTVSS
VL: DIVITQSHKFMSTSVGDRVSITCKASQDVTNVVAWYQQKPGQSPKLLIYSASYRYTGVPDRFTGSGSGTDFTFTISSVQAEDLAVYYCQQYYRTPRTFGGGTKLEIKR
notes: Mouse hybridoma monoclonal antibody; Hybridoma supernatant was used in the ELISA screen, purified antibody in biolayer interferometry; also called Mer-M19
B2: monoclonal antibody M6 (antibody, V domains shown)
VH: QVKLEESGPELKKPGETVKISCKASGYTFTNYGMNWVKQAPGKGLKWMGWINTYTGEPTYADDFKGRFVFSLETSASTAYLQINNLKNEDMATYFCARKSTVVSRYFDVWGAGTTVTVSS
VL: DIVLTQTHKFMSTSVGDRVSITCKASQDVGDAVTWCQQKPGQPPKLLIYWASTRHTGVPDRFTGSGSGTDFTLTINNVQSEDLADYFCQQYRSYPLTFGAGTKLELKR
notes: Mouse hybridoma monoclonal antibody; Hybridoma supernatant was used in the ELISA screen, purified antibody in biolayer interferometry; also called Mer-M6

Assays:
recombinant mouse MERTK = molecular target: T1, recombinant mouse MERTK; assay: biolayer interferometry
recombinant human MERTK = molecular target: T2, recombinant human MERTK; assay: biolayer interferometry

Binder | binding (recombinant mouse MERTK) | binding (recombinant human MERTK)
B1 | binds | binds
B2 |  | binds
